No constants are given. Whether binding was seen depends on the method and setting. For some assays here: Sequences can lack the tags named with a protein.
Key:
[1] = target: T1, Hairless, full-length, two-hybrid bait (pEG H) (Drosophila melanogaster) (UniProt Q02308); assay: two-hybrid; H constructs as bait in pEG202, Asf1 or Su(H) as prey in pJG4-5; lacZ reporter from pSH18-34, blue coloration of yeast colonies; overnight incubation for Su(H)-H, 48 h for Asf1-H
T1 sequence: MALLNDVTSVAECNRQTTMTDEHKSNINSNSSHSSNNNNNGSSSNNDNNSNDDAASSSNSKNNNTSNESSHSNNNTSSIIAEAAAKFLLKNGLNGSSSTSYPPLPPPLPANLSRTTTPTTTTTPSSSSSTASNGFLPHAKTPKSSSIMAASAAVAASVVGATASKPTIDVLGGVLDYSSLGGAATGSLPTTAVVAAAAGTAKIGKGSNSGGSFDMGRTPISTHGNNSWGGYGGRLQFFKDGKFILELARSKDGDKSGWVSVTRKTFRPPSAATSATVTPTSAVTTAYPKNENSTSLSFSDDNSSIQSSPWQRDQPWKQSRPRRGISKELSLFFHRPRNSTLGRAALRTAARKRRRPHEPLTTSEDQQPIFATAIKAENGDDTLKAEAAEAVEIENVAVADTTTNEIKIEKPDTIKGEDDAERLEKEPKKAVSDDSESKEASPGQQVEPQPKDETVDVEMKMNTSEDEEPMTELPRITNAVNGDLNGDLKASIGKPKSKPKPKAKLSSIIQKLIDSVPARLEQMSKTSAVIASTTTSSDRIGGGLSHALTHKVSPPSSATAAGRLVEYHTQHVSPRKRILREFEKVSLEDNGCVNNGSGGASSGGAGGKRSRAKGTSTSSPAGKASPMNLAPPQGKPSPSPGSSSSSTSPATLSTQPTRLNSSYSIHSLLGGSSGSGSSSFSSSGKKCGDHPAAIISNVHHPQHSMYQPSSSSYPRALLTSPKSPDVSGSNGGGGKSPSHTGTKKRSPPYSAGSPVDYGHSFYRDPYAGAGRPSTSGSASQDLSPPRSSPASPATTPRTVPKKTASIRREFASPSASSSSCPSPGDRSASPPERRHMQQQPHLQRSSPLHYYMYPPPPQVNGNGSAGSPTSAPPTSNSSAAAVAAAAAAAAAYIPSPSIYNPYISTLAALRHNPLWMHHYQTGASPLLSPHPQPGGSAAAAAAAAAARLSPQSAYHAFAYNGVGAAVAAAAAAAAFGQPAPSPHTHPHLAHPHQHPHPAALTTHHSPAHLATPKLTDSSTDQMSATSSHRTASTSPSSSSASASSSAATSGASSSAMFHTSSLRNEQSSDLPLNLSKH

[2] = target: T2, NT^ΔCTmyc-MBP (Hairless 212-369 lacking codons 300-337) (Drosophila melanogaster) (UniProt Q02308); assay: co-IP; Myc-trap: purified Asf1-HA-MBP or Su(H)-GST mixed 1:1 with NTCTmyc-MBP peptides, about 10 min at 4 °C, 150 mM NaCl, 50 mM Tris pH7.5, 0.1% SDS; Myc-tagged H peptides trapped on anti-Myc nanobody magnetic beads 1 h at 4 °C; Western blot with anti-Myc, anti-HA, anti-GST; both purified
T2 sequence: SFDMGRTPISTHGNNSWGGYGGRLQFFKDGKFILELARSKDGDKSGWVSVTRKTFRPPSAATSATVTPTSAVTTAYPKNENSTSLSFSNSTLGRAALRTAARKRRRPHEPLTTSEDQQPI

[3] = target: T3, Hairless 295–317-myc MBP (Drosophila melanogaster) (UniProt Q02308); assay: as above
T3 sequence: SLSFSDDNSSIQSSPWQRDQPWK

Asf1 (1–154) = target: T4, Asf1 (1–154) (D. melanogaster, UniProt Q9V464 1-154); assay: condition: 100 μM Hairless in the syringe and 10 μM Asf1 in the cell (typical experiment); ITC; MicroCal VP-ITC, 25 °C, 20 mM HEPES pH 7.5, 150 mM NaCl; typically 100 μM Hairless in the syringe and 10 μM Asf1 in the cell; one-site binding model; both purified
T4 construct: Anti-silencing factor 1 (Asf1), D. melanogaster, amino acids 1-154; modified pET-14p construct
T4 sequence (looked up): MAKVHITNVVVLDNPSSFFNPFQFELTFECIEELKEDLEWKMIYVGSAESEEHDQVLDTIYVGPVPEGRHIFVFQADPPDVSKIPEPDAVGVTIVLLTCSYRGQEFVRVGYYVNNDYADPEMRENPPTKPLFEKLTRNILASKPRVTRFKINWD

B1: Asf1, full-length, two-hybrid prey (pJG Asf1) (protein, UniProt Q9V464 1-218)
chain: MAKVHITNVVVLDNPSSFFNPFQFELTFECIEELKEDLEWKMIYVGSAESEEHDQVLDTIYVGPVPEGRHIFVFQADPPDVSKIPEPDAVGVTIVLLTCSYRGQEFVRVGYYVNNDYADPEMRENPPTKPLFEKLTRNILASKPRVTRFKINWDYGHINGNGNGVENGHQDEMATDGPSTSEAASAVIHPEDDNSLAMPMENGIKALNENSNSLAMEC
Which binding [1] does the source give for B1 here?
Its binding is “no binding”.

B2: Asf1-HA-MBP (full-length Drosophila Asf1) (protein, UniProt Q9V464 1-218)
chain: B1 chain
Which binding [2] does the source give for B2 here?
Its binding is “no binding”.

And the binding [3]?
Its binding is “no binding”.

B3: H (232–338) (domain or fragment, UniProt Q02308 232-338)
chain: GGRLQFFKDGKFILELARSKDGDKSGWVSVTRKTFRPPSAATSATVTPTSAVTTAYPKNENSTSLSFSDDNSSIQSSPWQRDQPWKQSRPRRGISKELSLFFHRPRN
How did the binding (Asf1 (1–154)) turn out when B3 was run?
Its binding is “no binding”.

For STLGRAALRTAARKRRRPHE (domain or fragment, UniProt Q02308 339-358) [H (339–358)], which binding (Asf1 (1–154)) is on record?
The binding was “no binding”.
